# Assay results from PubChem BioAssay AID504861 (Broad Institute, 2011).
# The whole screen tested about 1,200 compounds, of which about 290 (24%) were called active. Another 3% or so got no clear call; they are omitted.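 The calls were made as follows: active = compounds lowering cell viability signal with fitted half-maximal concentration at most ten times their highest tested concentration; inconclusive = flat fit with 30 to 70% signal loss, or poor fit; inactive = the rest.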 The list shows a part of the results, in another mix than the full data. Results with a measured potency or affinity are listed apart.
# Experiment: cytotoxicity in HEK293T cells – cell-based, CellTiter-Glo luminescence, cherry-picks, cytotoxicity control for LMP1 NF-kB inhibitor project, dose response (AID 504861)
# Conditions: HEK293T viability, CellTiter-Glo ATP luminescence, 48 h; at 26 µM (top of the series)
row,Compound,"activity change, negative = cytotoxicity"
1,CN1CCc2cc3c(cc2[C@H]1[C@@H]1OC(=O)c2c1ccc1c2OCO1)OCO3,inactive: 9.64%
2,COC(=O)C1C2CC[C@@H](CC1OC(=O)c1ccccc1)N2 (stereo not given in full),inactive: 0.895%
3,NC(Cc1ccc(O)cc1)C(=O)NN=Cc1ccc(N(CCCl)CCCl)cc1 (stereo not given),inactive: 33.2%
4,CCN1C[C@]2(C)CC[C@H](O)[C@]34C1[C@H](C[C@H]23)[C@@]1(O)C[C@H](OC)[C@H]2C[C@@H]4[C@@H]1C2O (stereo not given in full),inactive: 14.4%
5,O=[N+]([O-])c1ccc(CN2CC=C(c3ccccc3)CC2)cc1,inactive: 0.043%
6,COc1ccc(O)c2c(=O)c3c(OC)cc4c(c3oc12)C1C=COC1O4 (stereo not given),inactive: 8.89%
7,COc1c2c(cc3c1OCO3)CCN(C)C2,inactive: -3.48%
8,CCn1c(O)c(C=Nc2ccc(N3CCOCC3)c(Br)c2)c(=O)n(CC)c1=S,inactive: 12.2%
9,CC(=O)c1c(C)n(C2CCCCC2)c2ccc(O)cc12,inactive: 3.28%
10,COC(=O)C1=C(c2ccc3ccccc3c2)C[C@@H]2CC[C@H]1N2C(=O)N1CCC(O)CC1,inactive: -0.166%
11,N#Cc1ncc(N=Cc2ccc(N(CCCl)CCCl)cc2)s1,inactive: 11.9%
12,COC12C(COC(N)=O)C3=C(C(=O)C(C)=C(N)C3=O)N1CC1C2N1C (stereo not given),inactive: -2.08%
13,CCOC(=O)CC(NC(=O)C(Cc1ccc(N(CCCl)CCCl)cc1)NC(C)=O)C(=O)OCC (stereo not given),inactive: 3.33%
14,CC1(CCCc2ccc(N(CCCl)CCCl)cc2)NC(=O)NC1=O (stereo not given),inactive: -0.088%
15,CC1(C(=O)O)CC12c1ccccc1-c1ccccc12 (stereo not given),inactive: 12.3%
16,O=C(O)CCCOc1ccc(Cl)cc1Cl,inactive: 1.24%
17,O=C(NN=Cc1ccc(N(CCCl)CCCl)cc1Cl)c1cccnc1,inactive: 4.39%
18,CN1[C@@H]2CC[C@H]1CC(OC(=O)C1C=Nc3ccccc31)C2 (stereo not given in full),inactive: 8.32%
19,C[C@@H]1CN(C2CCC(C#N)(c3ccc(F)cc3)CC2)CC[C@]1(C(=O)O)c1ccccc1 (stereo not given in full),inactive: 9.51%
20,CCC(=O)O[C@H]1CC[C@H]2[C@@H]3CCC4=CC(=O)CC[C@]4(C)[C@H]3CC[C@]12C,inactive: 10.4%

row,Compound,"activity change, negative = cytotoxicity"
1,Fc1ccc(C(OCCN2CCCC2)c2ccc(F)cc2)cc1,inactive: -7.97%
2,O=C(NN=Cc1ccc(N(CCCl)CCCl)cc1)c1cccnc1,inactive: 6.26%
3,COc1ccc(CCNCc2cccn2C)cc1,inactive: 4.44%
4,O=C(N/N=C/C1C(=O)NC(=S)N(c2ccccc2)C1=O)c1cc(Br)c(O)c(Br)c1 (stereo not given),inactive: 2.36%
5,COc1ccc(OC)c([C@@H](O)[C@H](C)NC(C)(C)C)c1,inactive: 13.9%
6,COC(=O)C1=C(c2ccc(F)cc2OCc2ccccc2)C[C@@H]2CC[C@H]1N2C(=O)NC(C)C,inactive: 0.414%
7,C[N+]1(C)[C@@H]2CC[C@H]1CC(OC(=O)C(CO)c1ccccc1)C2 (stereo not given in full),inactive: 24.1%
8,O=C(N/N=C/c1c(O)n(C2CCCCC2)c(=S)[nH]c1=O)c1ccccc1O,inactive: -0.827%
9,CC(C)c1c(CN(C)C(C)Cc2ccccc2)n(C)n(-c2ccccc2)c1=O (stereo not given),inactive: 2.33%
10,CCN(CC)CCCN=Cc1c(O)n(Cc2ccc(F)cc2)c(=O)[nH]c1=O,inactive: 3.66%
11,N[C@@H](Cc1ccc(N(CCCl)CCCl)cc1)C(=O)O,inactive: 0.381%
12,O=c1[nH]c(CN2CC=C(c3ccccc3)CC2)nc2cc(C(F)(F)F)ccc12,inactive: 5.12%
13,COc1cccc(-c2nc3ccc(N4CCN(C)CC4)cc3[nH]2)c1,inactive: 4.33%
14,C#C[C@]1(O)CC[C@H]2[C@@H]3CCC4=CC(=O)CC[C@]4(C)[C@H]3CC[C@@]21C,inactive: 10.7%
15,Cc1cc(C)n(-c2ccc(NN=C(C#N)C#N)cc2)n1,inactive: -0.783%
16,Cc1nc2ccccc2n1C1CCN(Cc2nnnn2CCc2ccccc2)CC1,inactive: 11.4%
17,O=c1cccc2n1CC1CC2CN(Cc2c(F)cccc2Cl)C1 (stereo not given),inactive: 7.42%
18,Cc1cccc(CN2CCN(Cc3ccc(Cl)cc3)CC2)c1,inactive: 25.9%
19,CC(=O)N(C)C1=Nc2ccc(Cl)cc2C(c2ccccc2)=[N+]([O-])C1,inactive: 5.7%
20,CCN1C[C@]2(COC)CC[C@H](OC)[C@@]34C1[C@]1(OCO[C@@]15C[C@H](OC)[C@H]1C[C@@H]3[C@@H]5[C@H]1OC)[C@@H](O)[C@H]24,inactive: -1.87%
